Source: patent US8993718B2, “Methods and compositions for detecting and modulating O-glycosylation” (President and Fellows of Harvard College, priority 2007, dated 2015)
Where two headings read alike, the source gives them in different places. Some results were stated once for a whole list of compounds, not compound by compound.

Assays:
[1] = tested on: ppGalNAcTs; assay: Protease protection assay for ppGalNAcTs (general); assay type: biochemical
Experimental: There are multiple isoforms of the enzyme polypeptide N-acetylgalactosaminyltranferases (ppGalNAcTs). Activity of ppGalNAcTs are illustrated in FIG. 14. Using assay methods as described above, peptide substrates for ppGalNAcTs were prepared and used to assay to identify modulators of ppGalNAcTs activity. Peptide substrates EPGPTEAPK (SEQ ID NO:25) and EDAVTPGPK (SEQ ID NO:26) were prepared (see FIG. 15) and utilized to assay for modulators of the enzymes. Each peptide substrate include a proteinase K cleavage site. The identified compound SEQ ID NO:25 is a general substrate for ppGalNAcTs and identified compound SEQ ID NO:26 is a selective substrate for the enzyme ppGalNAcT1. Assays were run and alterations in the rate and/or amount of cleavage by proteinase K was determined. […] The difference in cleavage permitted use of the assay to identify compounds that inhibit glycosylation of the substrate by ppGalNAcTs. Additional inhibitory compounds identified using the assay include Compound 24 and Compound 27 (see Table 1).

[2] = target: Proteinase K (Parengyodontium album, UniProt P06873); assay: Proteolysis of glycosylated vs unglycosylated FRET polypeptides with serial protease dilutions; assay type: biochemical

| Compound | rate of proteolysis, unglycosylated vs corresponding glycosylated polypeptide [2] | other results |
| --- | --- | --- |
| O=C1NC(=O)N(Cc2ccco2)C(=O)/C1=C\c1ccco1 [Compound 25] | – | inhibition of ppGalNAcTs [1]: inhibit |
| O=C1NC(=S)NC(=O)C1=C/C=C\c1ccco1 [Compound 26] | – | inhibition of ppGalNAcTs ([1]; listed as compound 26): inhibit |
| FITC(Aha)STPVSRANMK(DEAC) (FITC-Aha N-term, DEAC on Lys) [Polypeptide 4.8] | 100-500 times faster | – |
| FITC(Aha)STPVSSANMK(DEAC) (FITC-Aha N-term, DEAC on Lys) [Polypeptide 4.6] | 100-500 times faster | – |
